For two substances, binding results are on record in paper PMC10937794.

Chains of the proteins cited; added tags and fusions are not shown.
UniProt Q9R0P9: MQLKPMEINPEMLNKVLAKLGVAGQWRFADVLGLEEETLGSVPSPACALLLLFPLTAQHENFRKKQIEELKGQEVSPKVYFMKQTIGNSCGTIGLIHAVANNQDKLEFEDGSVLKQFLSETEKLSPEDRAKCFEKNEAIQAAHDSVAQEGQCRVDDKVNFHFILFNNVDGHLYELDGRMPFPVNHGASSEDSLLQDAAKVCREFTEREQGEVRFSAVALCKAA
UniProt Q61473: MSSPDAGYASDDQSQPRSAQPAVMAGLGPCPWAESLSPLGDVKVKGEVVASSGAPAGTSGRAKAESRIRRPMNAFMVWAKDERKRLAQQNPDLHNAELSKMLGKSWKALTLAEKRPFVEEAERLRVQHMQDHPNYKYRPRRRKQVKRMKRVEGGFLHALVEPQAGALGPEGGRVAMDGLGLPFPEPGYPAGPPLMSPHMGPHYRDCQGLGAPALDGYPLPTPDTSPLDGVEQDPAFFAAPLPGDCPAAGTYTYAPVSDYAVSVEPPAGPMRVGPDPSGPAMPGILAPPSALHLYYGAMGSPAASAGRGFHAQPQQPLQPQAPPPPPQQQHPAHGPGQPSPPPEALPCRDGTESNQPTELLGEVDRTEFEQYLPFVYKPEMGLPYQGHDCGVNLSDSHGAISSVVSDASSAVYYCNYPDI

For experiment [1], the target named is Ubiquitin C-terminal hydrolase L1 (UCHL1), endogenous in endothelial cells (mouse (endogenous in bEnd.3)) (UniProt Q9R0P9). As to the kind of experiment: co-IP; endogenous proteins in endothelial cell lysates; immunoprecipitation with anti-Sox17, anti-UCHL1 or control IgG and protein A/G plus-agarose at 4 C, immunoblot.
The target of experiment [2] is Sox17, endogenous in endothelial cells (mouse (endogenous in bEnd.3)) (UniProt Q61473). The description is as above.

No constants are given. Whether binding was seen depends on the method and setting. In cells and extracts the contact can be indirect. Some binding calls cover weakened binding; strength is not graded here.

As for “Sox17, endogenous in endothelial cells (from UniProt Q61473 1-419)”, in experiment [1], the binding entry is “binds”.

Consider “Ubiquitin C-terminal hydrolase L1 (UCHL1), endogenous in endothelial cells (from UniProt Q9R0P9 1-223) (enzyme)”, for which the binding result in experiment [2] is recorded as “binds”.
